Source: the supplement of paper PMC10973195
± gives the standard deviation of the averaged measurements. Some of the results follow. These are raw signals, not scaled to a control.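 A neuron, microglia and astrocyte co-culture models inflammatory neurodegeneration: bacterial LPS drives microglia-dependent neuron loss. Each compound was tested against DMSO vehicle wells on the same plates; BAY61-3606, a SYK inhibitor, was the reference neuroprotective control.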

These compounds were tested on rat primary cerebellar neuron-glia coculture (assay: live neuron count (NeuO+) per image field (cells per field); higher = more surviving neurons). Settings: LPS 0 ng/mL; 1 µM; treatment time 3 days.
Procedure: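 Primary rat (P3-7) cerebellar neuron-glia cocultures in 384-well plates were treated at DIV7 with 1 uM compound, then with or without 100 ng/mL LPS 30 min later, for 3 days. At DIV10 live cells were stained with Hoechst 33342, NeuO (live neurons), IB4-AF594 (microglia) and DRAQ7 (necrotic cells) and imaged at 10x (4 fields per well, IN Cell Analyzer 6000). Cells were classified with Cellpose/CellProfiler plus a Random Trees classifier. Values are per-well mean counts per image field (raw, not min-max normalised) and the median microglial FormFactor per image. Three technical replicates per repeat across 4 biological repeats; DMSO and BAY61-3606 serve as controls.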

`CCNC(=O)C[C@@H]1N=C(c2ccc(Cl)cc2)c2cc(OC)ccc2-n2c(C)nnc21` and `Cc1cccc(NC(=O)N[C@@H]2N=C(c3ccccc3)c3ccccc3N(C)C2=O)c1` are within error of each other in live neuron count: 2380 ± 470 for the first, 2570 ± 420 for the second.

`O=C1NC(=O)N(c2cccc3ccccc23)C(=O)/C1=C\c1c[nH]c2ccccc12` and `CCOc1ccccc1N1CCN(Cc2cccc3ccccc23)CC1` are within error of each other in live neuron count: 2510 ± 460 for the first, 2630 ± 560 for the second.

`C=CCN(CC=C)CCc1c[nH]c2ccc(OC)cc12` and `NCCc1cc(I)c(Oc2ccc(O)c(I)c2)c(I)c1` are within error of each other in live neuron count: 2590 ± 540 for the first, 2630 ± 500 for the second.

`C[N+]1(C)[C@@H]2C[C@@H](OC(=O)[C@H](CO)c3ccccc3)C[C@H]1[C@@H]1O[C@@H]12` and `O=C(c1ccccc1)C(F)(F)F` are within error of each other in live neuron count: 2690 ± 440 for the first, 2610 ± 470 for the second.

Going from `c1ccc(CCCN2CCN(CCOC(c3ccccc3)c3ccccc3)CC2)cc1` to `O=C(O[C@H]1C[N+]2(CCCOc3ccccc3)CCC1CC2)C(O)(c1cccs1)c1cccs1`, the live neuron count rises from 757 ± 320 to 2600 ± 380.

`C[C@@H]1CN([C@H]2CC[C@](C#N)(c3ccc(F)cc3)CC2)CC[C@]1(C(=O)O)c1ccccc1` and `OC1(c2ccc(Cl)cc2)c2ccccc2C2=NCCN21` (stereo not given) are within error of each other in live neuron count: 2610 ± 410 for the first, 1790 ± 610 for the second.

`Cc1cccc([C@H](C)c2c[nH]cn2)c1C` and `CN(C)C(=O)Oc1ccc2cc(Br)ccc2c1Br` are within error of each other in live neuron count: 2600 ± 490 for the first, 2610 ± 460 for the second.

`O=[N+]([O-])/N=C1\NCCN1Cc1ccc(Cl)nc1` and `O=C(NC1CN2CCC1CC2)c1cc(Br)cc2nc[nH]c12` (stereo not given) are within error of each other in live neuron count: 2750 ± 530 for the first, 2380 ± 700 for the second.

Compared with `C=C(C)[C@H]1Cc2c(ccc3c2O[C@@H]2COc4cc(OC)c(OC)cc4[C@@H]2C3=O)O1`, `COc1ccc2c(c[n+](C)c3c4cc5c(cc4ccc23)OCO5)c1OC` is higher in live neuron count: 99.7 ± 36 for the first, 2530 ± 760 for the second.

`Cn1c(CCCC(=O)O)nc2cc(N(CCCl)CCCl)ccc21` and `CN/C(=N\S(=O)(=O)c1ccc(Cl)cc1)N1CC(c2ccccc2)C(c2ccc(Cl)cc2)=N1` (stereo not given) are within error of each other in live neuron count: 2620 ± 750 for the first, 2570 ± 340 for the second.

Same assay, conditions: LPS 100 ng/mL; 1 µM; treatment time 3 days

Going from `CCNC(=O)C[C@@H]1N=C(c2ccc(Cl)cc2)c2cc(OC)ccc2-n2c(C)nnc21` to `Cc1cccc(NC(=O)N[C@@H]2N=C(c3ccccc3)c3ccccc3N(C)C2=O)c1`, the live neuron count falls from 2000 ± 730 to 198 ± 160.

`O=C1NC(=O)N(c2cccc3ccccc23)C(=O)/C1=C\c1c[nH]c2ccccc12` and `CCOc1ccccc1N1CCN(Cc2cccc3ccccc23)CC1` are within error of each other in live neuron count: 421 ± 350 for the first, 486 ± 900 for the second.

`C=CCN(CC=C)CCc1c[nH]c2ccc(OC)cc12` and `NCCc1cc(I)c(Oc2ccc(O)c(I)c2)c(I)c1` are within error of each other in live neuron count: 266 ± 240 for the first, 330 ± 310 for the second.

`C[N+]1(C)[C@@H]2C[C@@H](OC(=O)[C@H](CO)c3ccccc3)C[C@H]1[C@@H]1O[C@@H]12` and `O=C(c1ccccc1)C(F)(F)F` are within error of each other in live neuron count: 254 ± 210 for the first, 318 ± 330 for the second.

`c1ccc(CCCN2CCN(CCOC(c3ccccc3)c3ccccc3)CC2)cc1` and `O=C(O[C@H]1C[N+]2(CCCOc3ccccc3)CCC1CC2)C(O)(c1cccs1)c1cccs1` are within error of each other in live neuron count: 189 ± 160 for the first, 239 ± 200 for the second.

`C[C@@H]1CN([C@H]2CC[C@](C#N)(c3ccc(F)cc3)CC2)CC[C@]1(C(=O)O)c1ccccc1` and `OC1(c2ccc(Cl)cc2)c2ccccc2C2=NCCN21` (stereo not given) are within error of each other in live neuron count: 274 ± 350 for the first, 762 ± 540 for the second.

`Cc1cccc([C@H](C)c2c[nH]cn2)c1C` and `CN(C)C(=O)Oc1ccc2cc(Br)ccc2c1Br` are within error of each other in live neuron count: 514 ± 720 for the first, 350 ± 300 for the second.

`O=[N+]([O-])/N=C1\NCCN1Cc1ccc(Cl)nc1` and `O=C(NC1CN2CCC1CC2)c1cc(Br)cc2nc[nH]c12` (stereo not given) are within error of each other in live neuron count: 307 ± 310 for the first, 346 ± 260 for the second.

`C=C(C)[C@H]1Cc2c(ccc3c2O[C@@H]2COc4cc(OC)c(OC)cc4[C@@H]2C3=O)O1` and `COc1ccc2c(c[n+](C)c3c4cc5c(cc4ccc23)OCO5)c1OC` are within error of each other in live neuron count: 177 ± 93 for the first, 468 ± 600 for the second.

`Cn1c(CCCC(=O)O)nc2cc(N(CCCl)CCCl)ccc21` and `CN/C(=N\S(=O)(=O)c1ccc(Cl)cc1)N1CC(c2ccccc2)C(c2ccc(Cl)cc2)=N1` (stereo not given) are within error of each other in live neuron count: 449 ± 720 for the first, 359 ± 590 for the second.
